According to PubChem BioAssay AID504327 (National Center for Advancing Translational Sciences (NCATS), 2011):
The whole screen tested about 390,000 compounds, of which about 820 (0.21%) were called active. The inconclusive results got no clear call from the source; some entries with a clear call stand among them for comparison. Calls follow the shape of the dose curve; as a rule, active = well fitted inhibition curve with a large enough effect; inconclusive = small, poorly fitted or top-dose-only effect, or another doubt; inactive = no such curve, though single readings can be large or run the other way. Potencies of inconclusive entries are doubtful fits and often do not repeat.
Potency is read from the fitted curve at half-maximal effect.

Protein sequences, listed by entry. Tags and fused reporters are not part of them.
UniProt Q92830, whole entry, looked up: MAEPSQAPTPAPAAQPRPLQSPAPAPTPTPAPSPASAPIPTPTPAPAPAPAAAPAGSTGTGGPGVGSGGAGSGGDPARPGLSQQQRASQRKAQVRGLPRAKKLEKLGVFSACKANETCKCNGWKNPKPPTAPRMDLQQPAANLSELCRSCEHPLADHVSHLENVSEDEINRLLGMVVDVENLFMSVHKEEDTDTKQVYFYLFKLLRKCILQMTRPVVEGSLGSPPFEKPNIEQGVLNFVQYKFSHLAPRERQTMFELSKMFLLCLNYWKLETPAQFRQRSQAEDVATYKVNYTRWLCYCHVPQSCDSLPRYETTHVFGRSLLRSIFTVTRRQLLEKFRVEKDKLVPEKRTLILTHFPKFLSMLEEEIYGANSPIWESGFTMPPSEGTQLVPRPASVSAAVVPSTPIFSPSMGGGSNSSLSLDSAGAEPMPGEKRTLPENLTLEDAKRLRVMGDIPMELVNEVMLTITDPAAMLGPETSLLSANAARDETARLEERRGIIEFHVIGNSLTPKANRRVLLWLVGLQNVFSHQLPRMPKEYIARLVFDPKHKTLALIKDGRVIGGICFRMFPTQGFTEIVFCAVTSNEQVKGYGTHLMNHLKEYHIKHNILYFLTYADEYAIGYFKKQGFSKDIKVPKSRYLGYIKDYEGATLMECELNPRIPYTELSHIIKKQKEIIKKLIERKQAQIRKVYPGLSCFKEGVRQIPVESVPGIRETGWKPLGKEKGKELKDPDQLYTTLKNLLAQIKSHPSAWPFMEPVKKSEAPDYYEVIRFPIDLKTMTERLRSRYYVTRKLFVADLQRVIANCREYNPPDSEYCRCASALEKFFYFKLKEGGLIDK

The compounds below were run against Histone acetyltransferase KAT2A (Homo sapiens) (UniProt Q92830) (assay: qHTS Assay for Inhibitors of GCN5L2). Conditions: GCN5L2 HAT assay, ThioGlo1 CoA-SH fluorescence; series mostly up to 58.9 µM.
In short: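 GCN5L2 (20nM final) in 50mM HEPES, 0.1mM EDTA pH 7.5, 0.01% Tween-20 was preincubated 15 min at room temperature with compound, then given ThioGlo1 (50uM), H3(1-25) peptide (75uM) and acetyl-CoA (70uM); CoA-thiol fluorescence (Ex340/Em540) was read at 0 and 20 min.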
N#Cc1c(-c2ccccc2)nc(SCc2cccc(C(F)(F)F)c2)[nH]c1=O was tested, and the Potency was inconclusive: 20 µM [inhibitor, single point].
CCC(C)N(C(=O)CSc1ccc(NC(C)=O)cc1)C1CCS(=O)(=O)C1 (stereo not given) was tested, and the Potency was “inactive”.
CN(C1CCCCC1)S(=O)(=O)c1ccc(C(=O)O)cc1 was tested, and the Potency was “inactive”.
Cc1ccc(C(=O)NCCc2nnc3ccc(SCC(=O)N4CCCC4)nn23)cc1 was tested, and the Potency was inconclusive: 0.141 µM [inhibitor, full curve, poor fit].
In the case of CCOc1cc(C(=O)Nc2ccc3c(c2)n(C)c(=O)c(=O)n3C)cc(OCC)c1OCC, the Potency is reported as inconclusive: 39.8 µM [inhibitor, single point].
In the case of Cc1ccc(/C=c2\sc3nc(-c4cccs4)nn3c2=O)o1, the Potency is reported as inconclusive: 39.8 µM [inhibitor, single point].
In the case of COC(=O)c1ccc(Cn2nnc3c(=O)[nH]c(C4CCCN(S(=O)(=O)c5ccccc5Cl)C4)nc32)cc1 (stereo not given), the Potency is reported as inconclusive: 0.141 µM [inhibitor, full curve, poor fit].
For Cc1cc(C)nc(SCc2nnc(SCC(=O)Nc3nc(-c4ccccc4)cs3)n2-c2ccccc2)n1, the Potency was “inactive”.
In the case of CC(C)(C)OC(=O)N1CCC(c2c(C(=O)N3CCN(C(=O)c4ccco4)CC3)cnn2-c2ccc(F)cc2F)CC1, the Potency is reported as inconclusive: 25.1 µM [inhibitor, single point].
For C=CCOc1nc2c(c(=O)n(C)c(=O)n2C)n1Cc1ccccc1, the Potency was “inactive”.
Cc1ccc(-c2nnc(-n3nnc4ccccc43)c3ccccc23)cc1 was tested, and the Potency was inconclusive: 0.631 µM [inhibitor, single point].
With Cc1ccc2nc3c(c(Nc4ccccc4)c2c1)CCC3 the Potency was “inactive”.
For Cc1cc(NS(=O)(=O)c2ccc(NC(=O)CSc3nc4sc(C)c(C)c4c(=O)[nH]3)cc2)no1, the Potency was active: 14.1 µM.
For Cc1ccc(NC(=O)CCCn2c(=O)c3cccn3c3ccccc32)c(Cl)c1, the Potency was “inactive”.
O=C(CSC1=Nc2ccccc2C2=NC(CCC(=O)NC3CCCCC3)C(=O)N12)Nc1cccc(C(F)(F)F)c1 (stereo not given) was tested, and the Potency was “inactive”.
For O=C(CCOc1ccccc1)N(Cc1cccnc1)c1nc2c(F)cc(F)cc2s1, the Potency was “inactive”.
NS(=O)(=O)c1cc(C(=O)NC2CCSc3ccccc32)ccc1Cl (stereo not given) was tested, and the Potency was inconclusive: 5.01 µM [inhibitor, partial curve].
With O=C(Nc1ccc2oc(-c3cc(Br)ccc3Cl)nc2c1)c1cc2ccccc2o1 the Potency was inconclusive: 10 µM [inhibitor, partial curve].
CC1(C)CC(C(CC(=O)N2CCCC2)Cc2ccccc2)CCO1 (stereo not given) was tested, and the Potency was inconclusive: 0.708 µM [inhibitor, full curve, poor fit].
In the case of FC(F)(F)c1ccccc1-c1nc(N2CCOCC2)c2ccccc2n1, the Potency is reported as inconclusive: 31.6 µM [inhibitor, partial curve].
CCCCN(C(=O)c1ccc(-c2ccc([N+](=O)[O-])cc2)o1)c1c(N)n(CCCC)c(=O)[nH]c1=O was tested, and the Potency was inconclusive: 6.31 µM [inhibitor, single point].
For CC(C)Oc1cccc(-c2nnc(SCC(=O)Nc3ccc4c(c3)OCCO4)n2N)c1, the Potency was active: 25.1 µM.
In the case of CC1=NS(=O)(=O)c2cc(Cl)ccc2N1, the Potency is reported as inconclusive: 39.8 µM [inhibitor, single point].
With CCN(CC)C(=O)CN(C#N)c1nc(NC(C)C)nc(NC(C)C)n1 the Potency was inconclusive: 0.794 µM [inhibitor, single point].
Cc1ccc(N(Cc2ccc([N+](=O)[O-])cc2)C(=O)c2ccco2)cc1 was tested, and the Potency was inconclusive: 39.8 µM [inhibitor, single point].
Cc1ccc(NC(=O)CSCC(=O)Nc2cc(Cl)ccc2N2CCOCC2)cc1 was tested, and the Potency was “inactive”.
COc1ccc(NC(=O)Cn2c(=O)n(Cc3ccccc3Cl)c(=O)c3cc(OC)c(OC)cc32)cc1 was tested, and the Potency was “inactive”.
For CC(C)c1ccc(NC(=O)CN2C(=O)C3(SCC(=O)N3c3ccc(F)cc3)c3ccccc32)cc1 (stereo not given), the Potency was “inactive”.
In the case of CCOC(=O)c1ccc(OCCOc2cccc(C)c2)cc1, the Potency is reported as “inactive”.
With COc1ccc2cc(CN(CCc3ccccc3)Cc3nnnn3CC3CCCO3)c(=O)[nH]c2c1 (stereo not given) the Potency was inconclusive: 0.708 µM [inhibitor, single point].
For O=C(Nc1cc(Br)ccc1O)C1CC(c2ccccc2Cl)=NO1 (stereo not given), the Potency was inconclusive: 0.631 µM [inhibitor, full curve, poor fit].
For CCC(C)Sc1cccc(-c2nc3ccc(C)cn3c2NCc2ccccc2)c1 (stereo not given), the Potency was inconclusive: 14.1 µM [inhibitor, partial curve].
In the case of CC(O)(c1ccc(Cl)cc1)c1ccc(Cl)cc1, the Potency is reported as “inactive”.
With COc1ccc(S(=O)(=O)NCCCCCC(=O)NCCCN2CCOCC2)cc1 the Potency was inconclusive: 0.708 µM [inhibitor, single point].
With COC(=O)C1CCN(C2=C(NS(=O)(=O)c3ccc(Cl)cc3)C(=O)c3ccccc3C2=O)CC1 the Potency was “inactive”.
CCOC(=O)C1CCN(C(=O)c2ccc(C)c(NC(=O)c3nsc4ccccc34)c2)CC1 was tested, and the Potency was “inactive”.
In the case of O=C(Nc1ccc2c(c1)CCCN2C(=O)c1cccs1)c1ccccc1C(F)(F)F, the Potency is reported as “inactive”.
In the case of COc1ccccc1N1CCN(C(=O)c2cc(-c3ccccc3)on2)CC1, the Potency is reported as “inactive”.
For CNc1c([N+](=O)[O-])cnn1-c1ccc(Cl)cc1, the Potency was inconclusive: 0.398 µM [inhibitor, single point].
In the case of COc1ccc(Cl)cc1Nc1nc(N2CCCC2)nc(N2CCCC2)n1, the Potency is reported as “inactive”.
In the case of COc1ccc(NC(=O)N2CCC3(CC2)CCN(C(=O)c2cc(C(F)(F)F)cc(C(F)(F)F)c2)CC3)cc1, the Potency is reported as “inactive”.
CC1CCC2(CC1)NC(=O)N(CC(=O)Nc1ccc3c(c1)OCCCO3)C2=O (stereo not given) was tested, and the Potency was inconclusive: 39.8 µM [inhibitor, single point].
COC(C(=O)Nc1ccnn1C1CCN(Cc2ccc(C)s2)CC1)c1ccccc1 (stereo not given) was tested, and the Potency was inconclusive: 3.16 µM [inhibitor, partial curve].
With CC(C)C(=O)Nc1ccc(C(=O)NNC(=S)NC(=O)c2ccco2)cc1 the Potency was inconclusive: 39.8 µM [inhibitor, partial curve, poor fit].
COc1cc(/C=C/C(=O)Nc2cccnc2)cc(OC)c1OC was tested, and the Potency was inconclusive: 39.8 µM [inhibitor, partial curve, poor fit].
